Article PMC4636238

Amino acid sequences for entries named in this document (tags omitted). Residues count along the entry.
UniProt P15516, residues 20-43: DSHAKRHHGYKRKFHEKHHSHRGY

B1: Ubiquitin-conjugating enzyme E2, J2 (UBC6 homolog, yeast) (Fragment) (protein, UniProt Q8N2K1 1-259)
chain: MSSTSSKRAPTTATQRLKQDYLRIKKDPVPYICAEPLPSNILEWHYVVRGPEMTPYEGGYYHGKLIFPREFPFKPPSIYMITPNGRFKCNTRLCLSITDFHPDTWNPAWSVSTILTGLLSFMVEKGPTLGSIETSDFTKRQLAVQSLAFNLKDKVFCELFPEVVEEIKQKQKAQDELSSRPQTLPLPDVVPDGETHLVQNGIQLLNGHAPGAVPNLAGLQQANRHHGLLGGALANLFVIVGFAAFAYTVKYVLRSIAQE
B2: PIBF1 protein (protein, UniProt Q8WXW3 1-757)
chain: MSRKISKESKKVNISSSLESEDISLETTVPTDDISSSEEREGKVRITRQLIERKELLHNIQLLKIELSQKTMMIDNLKVDYLTKIEELEEKLNDALHQKQLLTLRLDNQLAFQQKDASKYQELMKQEMETILLRQKQLEETNLQLREKAGDVRRNLRDFELTEEQYIKLKAFPEDQLSIPEYVSVRFYELVNPLRKEICELQVKKNILAEELSTNKNQLKQLTETYEEDRKNYSEVQIRCQRLALELADTKQLIQQGDYRQENYDKVKSERDALEQEVIELRRKHEILEASHMIQTKERSELSKEVVTLEQTVTLLQKDKEYLNRQNMELSVRCAHEEDRLERLQAQLEESKKAREEMYEKYVASRDHYKTEYENKLHDELEQIRLKTNQEIDQLRNASREMYERENRNLREARDNAVAEKERAVMAEKDALEKHDQLLDRYRELQLSTESKVTEFLHQSKLKSFESERVQLLQEETARNLTQCQLECEKYQKKLEVLTKEFYSLQASSEKRITELQAQNSEHQARLDIYEKLEKELDEIIMQTAEIENEDEAERVLFSYGYGANVPTTAKRRLKQSVHLARRVLQLEKQNSLILKDLEHRKDQVTQLSQELDRANSLLNQTQQPYRYLIESVRQRDSKIDSLTESIAQLEKDVSNLNKEKSALLQTKNQMALDLEQLLNHREELAAMKQILVKMHSKHSENSLLLTKTEPKHVTENQKSKTLNVPKEHEDNIFTPKPTLFTKKEAPEWSKKQKMKT
B3: Zinc finger CCCH domain-containing protein 3 (protein, UniProt Q8IXZ2 1-948)
chain: MEEKEILRRQIRLLQGLIDDYKTLHGNAPAPGTPAASGWQPPTYHSGRAFSARYPRPSRRGYSSHHGPSWRKKYSLVNRPPGPSDPPADHAVRPLHGARGGQPPVPQQHVLERQVQLSQGQNVVIKVKPPSKSGSASASGAQRGSLEEFEETPWSDQRPREGEGEPPRGQLQPSRPTRARGTCSVEDPLLVCQKEPGKPRMVKSVGSVGDSPREPRRTVSESVIAVKASFPSSALPPRTGVALGRKLGSHSVASCAPQLLGDRRVDAGHTDQPVPSGSVGGPARPASGPRQAREASLVVTCRTNKFRKNNYKWVAASSKSPRVARRALSPRVAAENVCKASAGMANKVEKPQLIADPEPKPRKPATSSKPGSAPSKYKWKASSPSASSSSSFRWQSEASSKDHASQLSPVLSRSPSGDRPAVGHSGLKPLSGETPLSAYKVKSRTKIIRRRSSTSLPGDKKSGTSPAATAKSHLSLRRRQALRGKSSPVLKKTPNKGLVQVTTHRLCRLPPSRAHLPTKEASSLHAVRTAPTSKVIKTRYRIVKKTPASPLSAPPFPLSLPSWRARRLSLSRSLVLNRLRPVASGGGKAQPGSPWWRSKGYRCIGGVLYKVSANKLSKTSGQPSDAGSRPLLRTGRLDPAGSCSRSLASRAVQRSLAIIRQARQRREKRKEYCMYYNRFGRCNRGERCPYIHDPEKVAVCTRFVRGTCKKTDGTCPFSHHVSKEKMPVCSYFLKGICSNSNCPYSHVYVSRKAEVCSDFLKGYCPLGAKCKKKHTLLCPDFARRGACPRGAQCQLLHRTQKRHSRRAATSPAPGPSDATARSRVSASHGPRKPSASQRPTRQTPSSAALTAAAVAAPPHCPGGSASPSSSKASSSSSSSSSPPASLDHEAPSLQEAALAAACSNRLCKLPSFISLQSSPSPGAQPRVRAPRAPLTKDSGKPLHIKPRL
B4: Long palate, lung and nasal epithelium carcinoma-associated protein 1 (protein, UniProt Q8TDL5 22-484)
chain: TLSPTAVLILGPKVIKEKLTQELKDHNATSILQQLPLLSAMREKPAGGIPVLGSLVNTVLKHIIWLKVITANILQLQVKPSANDQELLVKIPLDMVAGFNTPLVKTIVEFHMTTEAQATIRMDTSASGPTRLVLSDCATSHGSLRIQLLHKLSFLVNALAKQVMNLLVPSLPNLVKNQLCPVIEASFNGMYADLLQLVKVPISLSIDRLEFDLLYPAIKGDTIQLYLGAKLLDSQGKVTKWFNNSAASLTMPTLDNIPFSLIVSQDVVKAAVAAVLSPEEFMVLLDSVLPESAHRLKSSIGLINEKAADKLGSTQIVKILTQDTPEFFIDQGHAKVAQLIVLEVFPSSEALRPLFTLGIEASSEAQFYTKGDQLILNLNNISSDRIQLMNSGIGWFQPDVLKNIITEIIHSILLPNQNGKLRSGVPVSLVKALGFEAAESSLTKDALVLTPASLWKPSSPVSQ
B5: Lysozyme C (F8VV32) (enzyme, UniProt P61626 19-148)
chain: KVFERCELARTLKRLGMDGYRGISLANWMCLAKWESGYNTRATNYNAGDRSTDYGIFQINSRYWCNDGKTPGAVNACHLSCSALLQDNIADAVACAKRVVRDPQGIRAWVAWRNRCQNRDVRQYVQGCGV
B6: Junction plakoglobin (protein, UniProt P14923 1-745)
chain: MEVMNLMEQPIKVTEWQQTYTYDSGIHSGANTCVPSVSSKGIMEEDEACGRQYTLKKTTTYTQGVPPSQGDLEYQMSTTARAKRVREAMCPGVSGEDSSLLLATQVEGQATNLQRLAEPSQLLKSAIVHLINYQDDAELATRALPELTKLLNDEDPVVVTKAAMIVNQLSKKEASRRALMGSPQLVAAVVRTMQNTSDLDTARCTTSILHNLSHHREGLLAIFKSGGIPALVRMLSSPVESVLFYAITTLHNLLLYQEGAKMAVRLADGLQKMVPLLNKNNPKFLAITTDCLQLLAYGNQESKLIILANGGPQALVQIMRNYSYEKLLWTTSRVLKVLSVCPSNKPAIVEAGGMQALGKHLTSNSPRLVQNCLWTLRNLSDVATKQEGLESVLKILVNQLSVDDVNVLTCATGTLSNLTCNNSKNKTLVTQNSGVEALIHAILRAGDKDDITEPAVCALRHLTSRHPEAEMAQNSVRLNYGIPAIVKLLNQPNQWPLVKATIGLIRNLALCPANHAPLQEAAVIPRLVQLLVKAHQDAQRHVAAGTQQPYTDGVRMEEIVEGCTGALHILARDPMNRMEIFRLNTIPLFVQLLYSSVENIQRVAAGVLCELAQDKEAADAIDAEGASAPLMELLHSRNEGTATYAAAVLFRISEDKNPDYRKRVSVELTNSLFKHDPAAWEAAQSMIPINEPYGDDMDATYRPMYSSDVPLDPLEMHMDMDGDYPIDTYSDGLRPPYPTADHMLA

Legend:
[1] = molecular target: biotinylated histatin 5 (human) (UniProt P15516); assay: affinity purification with mass spectrometry; pull-down: biotinylated histatin 5 on immobilized streptavidin agarose beads; 300 ug lyophilized parotid saliva in pH 7.0 binding buffer, 4 h, 4°C; washed with PBS with 75 mM NaCl pH 5.0; eluted at pH 2.8; trypsin digestion, LC-ESI-MS/MS; only the target purified
histatin 5 (human) = histatin 5 (human) (UniProt P15516); assay: affinity purification with mass spectrometry; co-IP: synthetic histatin 5 held by mouse anti-histatin 3/5 monoclonal antibody on protein G magnetic beads; 300 ug pooled parotid saliva protein in PBS pH 7.5, 4°C, 24 h; washed with PBS; eluted with 2.5% acetic acid; in-solution or in-gel trypsin digestion, LC-ESI-MS/MS; only the target purified

| Binder | binding [1] | binding (histatin 5 (human)) |
| --- | --- | --- |
| B1 | binds | binds |
| DSSEEKFLRRIGRFGYGYGPYQPVPEQPLYPQPYQPQYQQYTF (peptide, UniProt P02808 20-62) [Statherin] | binds | binds |
| B2 | binds | binds |
| B3 | binds | binds |
| B4 | binds | binds |
| B5 | binds | binds |
| B6 | binds | binds |

No constants are given. Whether binding was seen depends on the method and setting. In cells and extracts the contact can be indirect. Here binding means that the protein was enriched with, or labelled near, the bait; the list need not be complete.
